Conditions in all cases: 10 µM; pre-incubation: 30-90 min
Assay [1] has as its system Danio rerio larvae (5 dpf, TLF). The experiment in a line: OMR-Perf (SSMD vs DMSO vehicle); higher = higher than vehicle (e.g. higher dark-flash O-bend response probability, or better optomotor performance).
For assay [2] the test system is unchanged. The experiment in a line: Prob-Test (SSMD vs DMSO vehicle); higher = higher than vehicle (e.g. higher dark-flash O-bend response probability, or better optomotor performance).
Assay [3] shares this test system. The experiment in a line: Prob-Naive (SSMD vs DMSO vehicle); higher = higher than vehicle (e.g. higher dark-flash O-bend response probability, or better optomotor performance).
The test system is the same in assay [4]. The experiment in a line: Prob-Train (SSMD vs DMSO vehicle); higher = higher than vehicle (e.g. higher dark-flash O-bend response probability, or better optomotor performance).

SMILES strings stand for the structures. Some of the results follow. Single values are uncertain here, since repeats match poorly.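 Free-swimming zebrafish larvae were assessed for O-bend response probability to dark flashes (naive: first five; training: remaining flashes across four 60-flash blocks; test: later 60-flash block) and for OMR turning toward alternating leftward/rightward LED motion. Six treated larvae were compared against sixty 0.1% DMSO controls; hits required |SSMD|≥2.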

With `CC[C@@H](CO)NCCN[C@@H](CC)CO.Cl.Cl` [Ethambutol HCl], the OMR-Perf in assay [1] is -0.275. Besides, the Prob-Test in assay [2] is -0.257. The Prob-Naive in assay [3] was determined as 0. The same molecule returned a Prob-Train in assay [4] of 0.000824.
Regarding `CC(C)CC(=O)Nc1n[nH]c2c1CN(C(=O)C1CCN(C)CC1)C2(C)C`, in assay [1], the OMR-Perf is -0.432. This molecule registered a Prob-Test in assay [2] of 0.234. For the same molecule, the Prob-Naive in assay [3] is 0.564. Also, in assay [4], the Prob-Train stood at 0.175.
The matching figures for `NS(=O)(=O)c1cc2c(cc1Cl)NC(CSCc1ccccc1)=NS2(=O)=O` [Benzthiazide]: -0.548, -0.563, -0.362 and 0.231.
The matching figures for `CC1Cc2ccccc2N1NC(=O)c1ccc(Cl)c(S(N)(=O)=O)c1` (stereo not given) [Indapamide]: 0.334, -0.0906, -0.0365 and 0.167.
As for `CC(C)(C)NS(=O)(=O)c1cncc(-c2cc(F)c3nc(N)nn3c2)c1`, in assay [1], the OMR-Perf was -0.742. The Prob-Test in assay [2] came to 0.0891. This molecule also came in with a Prob-Naive in assay [3] of 0.538. Also, the Prob-Train in assay [4] amounted to 0.504.
The like results for `CC(C(=O)O)c1ccc(C(=O)c2cccs2)cc1` (stereo not given) [Suprofen] were, in that order, 0.216, 0.239, -0.224 and 0.106.
In turn, `N#CCNC(=O)c1ccc(-c2ccnc(Nc3ccc(N4CCOCC4)cc3)n2)cc1` came in with an OMR-Perf in assay [1] of 0.575. The Prob-Test in assay [2] worked out at 0.217. In addition, in assay [3], the Prob-Naive was -0.234. In addition, the Prob-Train in assay [4] is -0.32.
On to `Nc1ccc(C(=O)NCC(=O)[O-])cc1.[Na+]` [Sodium 4-aminohippurate Hydrate], for which the OMR-Perf in assay [1] is -0.0912. In addition, the Prob-Test in assay [2] was 0.127. The Prob-Naive in assay [3] is 0.134. The Prob-Train in assay [4] came to 0.218.
The matching figures for `CC1(C)S[C@H]2[C@H](NC(=O)[C@H](N)c3ccccc3)C(=O)N2[C@H]1C(=O)O.O.O.O` [Ampicillin Trihydrate]: -0.183, 0.314, -0.115 and 0.154.
`Cn1cc(-c2ccncc2)c(-c2ccc(OCc3ccc4ccccc4n3)cc2)n1`: the OMR-Perf in assay [1] is -0.718. For the same molecule, the Prob-Test in assay [2] was -1.67. The Prob-Naive in assay [3] was -3.73. Further, the Prob-Train in assay [4] is -1.65.
As to `Cc1ccc(S(=O)(=O)NC(=O)NN2CC3CCCC3C2)cc1` (stereo not given) [Gliclazide], the OMR-Perf in assay [1] was -0.409. Further, the Prob-Test in assay [2] was -0.19. Also, the Prob-Naive in assay [3] was -0.0702. In assay [4], the Prob-Train is -0.341.
The matching figures for `O=C(COc1cccc2c(=O)[nH]ccc12)c1ccccc1`: 0.412, -1.08, -0.735 and -1.2.
For the molecule `C=C[C@@]1(C)C[C@@H](OC(=O)CS[C@@H]2C[C@H]3CC[C@@H](C2)N3C)[C@@]2(C)[C@@H]3C(=O)CC[C@@]3(CC[C@@H]2C)[C@@H](C)[C@@H]1O` [Retapamulin], the OMR-Perf in assay [1] was -0.445. In addition, in assay [2], the Prob-Test was 0.178. Further, the Prob-Naive in assay [3] worked out at 0.204. The Prob-Train in assay [4] was -0.0912.
For the molecule `COc1c2occc2cc2ccc(=O)oc12` [Methoxsalen], the OMR-Perf in assay [1] was found to be 0.258. In assay [2], the Prob-Test is -0.302. The Prob-Naive in assay [3] is -0.782. The Prob-Train in assay [4] was -1.16.
For the molecule `CCCC(=O)Nc1ccc(OCC(O)CNC(C)C)c(C(C)=O)c1.Cl` (stereo not given) [Acebutolol HCl], the OMR-Perf in assay [1] was -0.12. Further, in assay [2], the Prob-Test was -0.359. In addition, in assay [3], the Prob-Naive is -0.245. Also, in assay [4], the Prob-Train was -0.484.
The matching figures for `CCOC(=O)C1=C(COCCN)NC(C)=C(C(=O)OC)C1c1ccccc1Cl` (stereo not given) [Amlodipine]: 0.485, 0.0955, 0.0551 and 0.334.
As for `CC1(C)S[C@H]2[C@H](NC(=O)[C@H](N)c3ccc(O)cc3)C(=O)N2[C@H]1C(=O)O` [Amoxicillin], the OMR-Perf in assay [1] was 0.306. In addition, the Prob-Test in assay [2] was -0.58. The Prob-Naive in assay [3] was -0.195. In assay [4], the Prob-Train was -0.0715.
The matching figures for `Cc1cccc(-c2nc(C(C)(C)C)[nH]c2-c2ccc3nccnc3c2)n1`: 0.189, -0.831, -0.0954 and -0.494.
In the case of `CCOC(=O)N1c2ccc(C(F)(F)F)cc2[C@H](N(Cc2cc(C(F)(F)F)cc(C(F)(F)F)c2)C(=O)OC)C[C@H]1CC` [Torcetrapib], in assay [1], the OMR-Perf is -0.262. Besides, the Prob-Test in assay [2] was -0.273. The Prob-Naive in assay [3] amounted to 0.0846. Also, the Prob-Train in assay [4] is -0.419.
The like results for `CC(NC(=O)CCc1nc(=O)c2ccccc2[nH]1)c1ccccc1` (stereo not given) were, in that order, 0.168, -0.763, -0.0813 and -0.815.
Regarding `CCN(CC)CCOC(=O)C(c1ccccc1)c1ccccc1.Cl` [Adiphenine HCl], the OMR-Perf in assay [1] is -0.39. Further, the Prob-Test in assay [2] is -0.248. In addition, the Prob-Naive in assay [3] is -0.819. Also, the Prob-Train in assay [4] was -0.49.
The like results for `Cn1c(Nc2ccc(C(F)(F)F)cc2)nc2cc(Oc3ccnc(-c4ncc(C(F)(F)F)[nH]4)c3)ccc21` were, in that order, -0.495, -0.211, 0.313 and -0.106.
Consider `C1(C[C@@H]2C[C@@H](C[C@@H]1N2C)OC(C3=CC=CC=C3)C4=CC=CC=C4).CS(=O)(=O)O` (stereo not given in full) [Benztropine mesylate], for which the OMR-Perf in assay [1] is -0.259. This molecule came in with a Prob-Test in assay [2] of 0.742. Moreover, the Prob-Naive in assay [3] is 5.13e-16. The same molecule gave a Prob-Train in assay [4] of 0.51.
The matching figures for `Cl.c1ccc2c(CC3=NCCN3)cccc2c1` [Naphazoline HCl]: 0.261, -0.558, -0.197 and -0.287.
For the molecule `Nc1ncn([C@@H]2O[C@H](CO)[C@@H](O)[C@@H]2O)c(=O)n1` [Azacitidine], in assay [1], the OMR-Perf was -0.832. The molecule further displayed a Prob-Test in assay [2] of 0.228. Besides, the Prob-Naive in assay [3] is -0.264. The molecule also displayed a Prob-Train in assay [4] of 0.51.

The values above are taken from the supplement of paper PMC10727501.
